Results on 40 compounds are retold here after PubChem BioAssay AID493014 (National Center for Advancing Translational Sciences (NCATS), 2011).

This assay in a line: qHTS Assay to Find Inhibitors of Chronic Active B-Cell Receptor Signaling. Particulars: ABC-DLBCL IkBa-CBG/CBR reporter, luminescence ratio (green luciferase fused to IkBa over red control in TMD8 lymphoma cells), 4 h. The procedure, abridged: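 Compounds up to 46 uM were incubated four hours with TMD8 cells whose green CBG68 luciferase is fused to IkappaBalpha; red CBR luminescence normalised the signal, and concentration-effect curves were fitted to fusion, red and ratio data.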
(qHTS replaces the single test concentration by a dilution series.)

The mark [1] stands for this setting: measured here: CBR red luminescence, cell number.
[2] abbreviates: measured here: IkBa-CBG green luminescence.

Some of the results follow. The main result of the screen is listed elsewhere. These columns were measured beside it and carry no call. Compounds called inactive in the main read-out are mostly missing here. The note in brackets gives the kind of curve behind each potency; many fits are weak.

A word on the AC50: it is the concentration giving half of the maximal activity seen. On to `Cc1[nH][nH]c(=O)c1C(c1ccc(Br)cc1)c1c(C)[nH][nH]c1=O`, for which the AC50 under setting [1] is 35.5 µM [falling, partial curve, poor fit].
The same measure, in the same setting: under `O=C(NCc1cccs1)Nc1cccs1` stands 10 µM [falling, partial curve, poor fit].
The same measure, in the same setting: under `COc1cc(NC(=O)COn2nnc3ccc(S(C)(=O)=O)cc32)cc(OC)c1` stands 2.82 µM [falling, partial curve, poor fit]; under `COC(=O)c1cn(C(=O)c2ccc(C)cc2C)c2ccccc12`, 6.31 µM [falling, single point].
Same read-out and setting: the same measure for `Cc1ccc(-c2noc(CCC(=O)NCCCN3CCN(c4cccc(Cl)c4)CC3)n2)cc1`: 6.31 µM [falling, partial curve, poor fit].
`OCc1cn(-c2ccccc2)nc1-c1cc2ccccc2o1`: the AC50 runs as follows: under setting [1], 35.5 µM [falling, single point]; under setting [2], 14.1 µM [rising, single point].
For `COc1ccccc1C(=O)Nc1ccccc1SC(=O)c1ccccc1OC`, the AC50 under setting [1] is 35.5 µM [falling, single point] and the AC50 under setting [2] is 3.55 µM [falling, full curve, poor fit].
`O=C(Cc1cccs1)NCc1ccco1`: the AC50 under setting [1] is 29.1 µM [rising, single point].
Take `N#CC1=C(Nc2ccccc2)SC=C(c2ccc(Cl)c(Cl)c2)N=C1N1CCOCC1`: under setting [1], the AC50 was 15.8 µM [falling, single point].
Take `O=C(N/N=C/c1ccc(Cl)cc1)c1sccc1OCc1ccc(F)cc1`: the AC50 under setting [1] was 13 µM [rising, partial curve] and the AC50 under setting [2] is 8.2 µM [falling, partial curve].
In the case of `COc1ccc(/C=N/NC(=S)Nc2cccc(C(=O)O)c2)cc1`, the AC50 under setting [1] was 6.31 µM [falling, partial curve, poor fit].
In the case of `COc1ccccc1C1C2CCCCC2(O)CCN1CC(=O)Nc1ccccc1` (stereo not given), the AC50 under setting [1] was 31.6 µM [falling, single point].
On the same count and under the same terms, under `COc1ccc(OC)c(NC(=O)Cc2nn(C)c(=O)c3ccccc23)c1` stands 16.4 µM [falling, partial curve].
Still for that read-out and setting: under `N/C(=N\OC(=O)c1cccc2ccccc12)c1ccncc1` stands 2.24 µM [rising, full curve, poor fit].
`COCCNC(=S)N/N=C(\C)c1ccccc1F`: the AC50 was 35.5 µM [falling, single point] under setting [1] and 10 µM [falling, partial curve] under setting [2].
Consider `O=C(C1CCCN(S(=O)(=O)c2ccc(Br)cc2)C1)N1CCN(Cc2ccccc2)CC1` (stereo not given), for which the AC50 under setting [1] was 1.78 µM [falling, partial curve, poor fit].
Regarding `O=C(Oc1ccccc1Cl)c1ccccc1P(=O)(O)O`, the AC50 under setting [1] was 18.4 µM [rising, partial curve, poor fit].
For the compound `CN1CCN(C(=O)c2ccccc2NC(=O)c2cccc(Cl)c2)CC1`, the concentration at half-maximal activity (AC50) under setting [1] is 1.78 µM [rising, partial curve, poor fit].
Still for that read-out and setting: under `COC(=O)Nc1ccc(S(=O)(=O)Nc2cccc3ccccc23)cc1` stands 10.3 µM [falling, partial curve, poor fit]; under `Cn1c(=O)c([N+](=O)[O-])c(NCc2ccccc2)c2ccccc21`, 3.26 µM [falling, partial curve]; under `CC(=O)OCc1nc2ccccc2s1`, 17.8 µM [rising, single point].
On the same count and under the same terms, the same measure for `CNS(=O)(=O)c1ccc(NC(=O)c2nc3nc(C)cc(C(F)F)n3n2)cc1`: 32.6 µM [falling, single point].
As to `CCC1CCCCN1C(=S)NC(=O)c1cccs1` (stereo not given), the AC50 reads like this: under setting [1], 4.47 µM [rising, partial curve, poor fit]; under setting [2], 35.5 µM [falling, partial curve, poor fit].
Take `COc1ccccc1NS(=O)(=O)NC(=O)c1cn(C)c2ccccc12`: under setting [1], the AC50 was 28.2 µM [falling, single point].
The same measure, in the same setting: under `Cc1ccc(/C=N\NC(=O)c2ccc3c(c2)OCO3)o1` stands 12.6 µM [falling, partial curve, poor fit]; under `Cc1nc(SCC(=O)Nc2cccc(Cl)c2)n[nH]1`, 0.146 µM [rising, full curve, poor fit].
With `O=C(C/C(=N\NC(=O)c1ccccc1Br)C(F)(F)F)c1cccs1`, the AC50 under setting [1] is 14.6 µM [falling, partial curve].
The same measure, in the same setting: the same measure for `COc1cccc(CN(C)Cc2c(O)ccc3ccccc23)c1`: 7.08 µM [falling, full curve, poor fit]; for `O=C(Nc1ccc(Cl)cc1)OC(CN1CCCCC1)C(F)(F)F` (stereo not given): 5.62 µM [rising, single point]; for `O=S(=O)(Nn1c(O)c(C=C2N=c3ccccc3=N2)sc1=S)c1ccccc1`: 10 µM [falling, partial curve].
As for `COc1cc2cc(CCCOC(=O)c3cc(OC)c(OC)c(OC)c3)oc(=O)c2cc1OC`, under setting [1], the AC50 was 8.2 µM [rising, partial curve, poor fit].
Still for that read-out and setting: under `CCOc1cc(C2C(C(C)=O)=C(O)C(=O)N2CCc2c[nH]c3ccccc23)ccc1O` (stereo not given) stands 5.01 µM [rising, partial curve, poor fit]; under `O=c1/c(=C\c2ccc(F)cc2)sc2n1CCCN=2`, 25.1 µM [falling, single point]; under `CCC1=Nc2cc(C(=O)NCCN3CCCC3)ccc2Sc2ccc(C)cc21`, 3.16 µM [falling, partial curve, poor fit].
Same read-out and setting: the same measure for `N/C(=N\OC(=O)c1ccc(Cl)cc1)c1cccnc1`: 0.116 µM [rising, full curve, poor fit].
As to `Cc1onc(-c2c(Cl)cccc2Cl)c1NC(=O)NN(C)c1ccc([N+](=O)[O-])cn1`, the AC50 under setting [1] is 35.5 µM [rising, single point].
`Cc1cccc(-c2cc(C(=O)Nc3cccnc3)c3ccccc3n2)c1`: the AC50 under setting [1] is 22.4 µM [falling, single point].
For `CCC(=O)Nc1cccc(NC(=O)COc2ccc(OC)cc2)c1`, under setting [1], the AC50 was 0.731 µM [falling, full curve].
Same read-out and setting: under `CSc1ncccc1C(=O)OCc1ccccc1` stands 3.16 µM [rising, partial curve, poor fit]; under `Cc1ccc(NC(=O)NC(=O)c2cnccc2C(F)(F)F)c(C)c1`, 0.355 µM [rising, full curve, poor fit].
